# Test results as given in the supplement of paper PMC10849652.
# Protein sequences, listed by entry. Tags and fused reporters are not part of them. Lines headed by an entry give the natural chain unless they say otherwise; changes in a name come on top.
# UniProt Q16822, whole entry, looked up: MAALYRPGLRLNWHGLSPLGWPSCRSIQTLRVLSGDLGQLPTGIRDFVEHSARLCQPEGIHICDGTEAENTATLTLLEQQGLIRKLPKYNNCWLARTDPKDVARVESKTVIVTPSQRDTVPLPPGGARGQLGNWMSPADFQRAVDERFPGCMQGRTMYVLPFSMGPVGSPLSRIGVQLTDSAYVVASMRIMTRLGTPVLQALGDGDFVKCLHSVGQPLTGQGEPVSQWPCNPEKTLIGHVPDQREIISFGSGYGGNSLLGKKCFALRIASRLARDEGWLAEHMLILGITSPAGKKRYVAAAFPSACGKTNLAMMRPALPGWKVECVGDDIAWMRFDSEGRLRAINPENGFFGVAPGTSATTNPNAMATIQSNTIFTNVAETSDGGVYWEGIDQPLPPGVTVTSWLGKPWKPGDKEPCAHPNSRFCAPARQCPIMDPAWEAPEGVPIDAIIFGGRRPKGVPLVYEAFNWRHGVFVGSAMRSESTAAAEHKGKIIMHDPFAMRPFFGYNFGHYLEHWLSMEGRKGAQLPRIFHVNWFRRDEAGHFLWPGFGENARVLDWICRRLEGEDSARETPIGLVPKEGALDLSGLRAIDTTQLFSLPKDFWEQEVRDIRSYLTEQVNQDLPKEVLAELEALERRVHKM
# UniProt Q15118, whole entry, looked up: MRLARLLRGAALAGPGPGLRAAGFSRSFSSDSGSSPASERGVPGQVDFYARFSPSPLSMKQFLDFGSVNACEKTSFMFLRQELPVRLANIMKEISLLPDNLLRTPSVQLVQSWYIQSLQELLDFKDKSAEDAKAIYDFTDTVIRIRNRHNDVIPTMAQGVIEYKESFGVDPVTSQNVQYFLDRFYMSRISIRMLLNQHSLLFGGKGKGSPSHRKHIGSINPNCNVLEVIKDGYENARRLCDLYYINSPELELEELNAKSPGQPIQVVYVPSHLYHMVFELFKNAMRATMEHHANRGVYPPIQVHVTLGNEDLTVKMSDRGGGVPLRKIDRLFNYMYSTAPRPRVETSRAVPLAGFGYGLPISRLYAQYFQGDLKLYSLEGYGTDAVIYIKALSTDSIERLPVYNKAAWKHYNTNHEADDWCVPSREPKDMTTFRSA
# UniProt O60925, whole entry, looked up: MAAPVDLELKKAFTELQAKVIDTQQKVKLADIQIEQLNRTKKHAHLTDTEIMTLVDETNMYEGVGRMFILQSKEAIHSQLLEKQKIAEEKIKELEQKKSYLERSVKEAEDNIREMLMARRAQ
# UniProt Q86SE9: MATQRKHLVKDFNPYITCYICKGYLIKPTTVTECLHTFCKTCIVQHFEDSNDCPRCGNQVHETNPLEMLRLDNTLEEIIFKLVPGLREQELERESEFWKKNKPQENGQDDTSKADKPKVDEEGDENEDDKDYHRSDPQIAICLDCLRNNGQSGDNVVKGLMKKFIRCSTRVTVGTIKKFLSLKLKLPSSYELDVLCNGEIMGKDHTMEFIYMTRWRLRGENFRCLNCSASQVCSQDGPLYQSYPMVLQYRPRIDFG
# UniProt Q86YH6: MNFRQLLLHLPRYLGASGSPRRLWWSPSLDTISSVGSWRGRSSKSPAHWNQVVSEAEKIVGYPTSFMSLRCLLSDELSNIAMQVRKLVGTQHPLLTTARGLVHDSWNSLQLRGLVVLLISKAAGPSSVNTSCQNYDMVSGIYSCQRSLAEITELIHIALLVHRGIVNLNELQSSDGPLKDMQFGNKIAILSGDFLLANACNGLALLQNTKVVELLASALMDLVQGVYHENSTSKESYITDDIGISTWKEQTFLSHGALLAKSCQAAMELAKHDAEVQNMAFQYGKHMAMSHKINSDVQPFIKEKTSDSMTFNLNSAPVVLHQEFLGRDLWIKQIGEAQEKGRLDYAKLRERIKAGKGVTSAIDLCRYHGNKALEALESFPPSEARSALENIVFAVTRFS
# UniProt Q13442: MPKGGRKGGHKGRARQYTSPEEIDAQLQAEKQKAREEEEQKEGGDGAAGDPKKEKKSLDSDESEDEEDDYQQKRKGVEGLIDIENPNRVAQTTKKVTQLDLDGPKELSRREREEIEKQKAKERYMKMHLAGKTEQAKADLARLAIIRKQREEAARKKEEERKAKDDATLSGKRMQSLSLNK
# UniProt Q9UBV8: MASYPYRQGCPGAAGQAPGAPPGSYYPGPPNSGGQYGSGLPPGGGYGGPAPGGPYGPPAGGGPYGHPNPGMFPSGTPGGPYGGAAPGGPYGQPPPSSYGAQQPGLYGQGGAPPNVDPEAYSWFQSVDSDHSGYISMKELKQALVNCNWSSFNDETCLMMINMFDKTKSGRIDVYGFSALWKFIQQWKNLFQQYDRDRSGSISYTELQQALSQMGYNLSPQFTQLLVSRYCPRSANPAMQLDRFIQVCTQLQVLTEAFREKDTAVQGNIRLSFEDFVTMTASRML
# UniProt Q8NEN9: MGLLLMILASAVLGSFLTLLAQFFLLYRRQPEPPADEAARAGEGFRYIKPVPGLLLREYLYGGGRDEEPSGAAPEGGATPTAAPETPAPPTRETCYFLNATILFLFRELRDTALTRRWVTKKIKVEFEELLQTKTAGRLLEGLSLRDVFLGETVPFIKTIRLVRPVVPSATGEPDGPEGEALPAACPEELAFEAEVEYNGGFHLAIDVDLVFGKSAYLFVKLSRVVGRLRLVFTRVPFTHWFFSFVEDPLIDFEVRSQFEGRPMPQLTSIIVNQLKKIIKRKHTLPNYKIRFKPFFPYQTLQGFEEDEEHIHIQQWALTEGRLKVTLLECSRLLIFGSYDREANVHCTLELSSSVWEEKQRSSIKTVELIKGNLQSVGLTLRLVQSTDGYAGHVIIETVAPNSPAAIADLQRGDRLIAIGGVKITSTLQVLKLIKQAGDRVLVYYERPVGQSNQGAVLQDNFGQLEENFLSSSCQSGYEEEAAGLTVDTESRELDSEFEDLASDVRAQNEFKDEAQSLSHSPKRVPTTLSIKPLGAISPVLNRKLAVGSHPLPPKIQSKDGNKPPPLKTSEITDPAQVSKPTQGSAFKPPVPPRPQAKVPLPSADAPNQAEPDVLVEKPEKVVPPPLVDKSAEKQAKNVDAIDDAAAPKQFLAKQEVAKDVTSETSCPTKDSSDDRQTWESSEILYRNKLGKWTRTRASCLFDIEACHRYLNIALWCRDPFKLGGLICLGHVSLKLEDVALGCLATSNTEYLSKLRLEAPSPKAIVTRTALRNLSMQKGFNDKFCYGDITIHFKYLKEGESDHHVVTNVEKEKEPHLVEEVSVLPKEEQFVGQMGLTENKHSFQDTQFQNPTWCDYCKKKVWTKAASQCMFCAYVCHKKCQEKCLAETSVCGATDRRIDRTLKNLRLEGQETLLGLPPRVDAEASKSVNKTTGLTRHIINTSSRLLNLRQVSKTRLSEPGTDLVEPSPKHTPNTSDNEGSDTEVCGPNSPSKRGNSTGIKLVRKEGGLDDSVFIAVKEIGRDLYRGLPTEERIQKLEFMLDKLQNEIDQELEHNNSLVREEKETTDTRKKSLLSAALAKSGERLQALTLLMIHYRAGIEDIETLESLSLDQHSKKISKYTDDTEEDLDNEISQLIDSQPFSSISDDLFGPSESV
# UniProt Q8WW12: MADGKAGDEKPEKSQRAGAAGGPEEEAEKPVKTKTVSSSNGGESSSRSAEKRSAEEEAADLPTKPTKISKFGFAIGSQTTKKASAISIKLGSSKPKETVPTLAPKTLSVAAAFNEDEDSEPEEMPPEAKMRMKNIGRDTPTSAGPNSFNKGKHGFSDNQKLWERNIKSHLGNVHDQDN
# UniProt Q9H0J9: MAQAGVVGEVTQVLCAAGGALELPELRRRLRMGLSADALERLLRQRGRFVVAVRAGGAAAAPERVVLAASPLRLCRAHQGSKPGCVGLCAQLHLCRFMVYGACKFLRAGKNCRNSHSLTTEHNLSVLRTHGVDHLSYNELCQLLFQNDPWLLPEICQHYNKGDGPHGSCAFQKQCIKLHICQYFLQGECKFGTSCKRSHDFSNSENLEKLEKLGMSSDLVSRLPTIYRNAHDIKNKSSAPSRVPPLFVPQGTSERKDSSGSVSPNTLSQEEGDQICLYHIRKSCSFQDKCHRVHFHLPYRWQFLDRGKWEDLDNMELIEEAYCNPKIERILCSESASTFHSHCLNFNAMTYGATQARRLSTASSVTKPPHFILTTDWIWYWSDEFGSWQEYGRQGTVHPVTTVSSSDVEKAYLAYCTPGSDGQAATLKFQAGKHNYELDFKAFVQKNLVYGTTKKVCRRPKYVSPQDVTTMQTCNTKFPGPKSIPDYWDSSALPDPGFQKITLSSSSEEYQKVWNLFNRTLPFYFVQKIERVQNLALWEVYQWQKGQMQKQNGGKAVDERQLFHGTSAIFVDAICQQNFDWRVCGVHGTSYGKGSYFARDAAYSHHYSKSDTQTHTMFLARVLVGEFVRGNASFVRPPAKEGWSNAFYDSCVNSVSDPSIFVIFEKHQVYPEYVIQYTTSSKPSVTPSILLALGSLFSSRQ
# UniProt Q9UHV9, whole entry, looked up: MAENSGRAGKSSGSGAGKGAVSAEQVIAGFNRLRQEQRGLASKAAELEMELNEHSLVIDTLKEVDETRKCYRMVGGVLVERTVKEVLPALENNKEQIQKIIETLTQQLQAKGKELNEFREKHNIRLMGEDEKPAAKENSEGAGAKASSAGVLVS
# UniProt Q9UKK3: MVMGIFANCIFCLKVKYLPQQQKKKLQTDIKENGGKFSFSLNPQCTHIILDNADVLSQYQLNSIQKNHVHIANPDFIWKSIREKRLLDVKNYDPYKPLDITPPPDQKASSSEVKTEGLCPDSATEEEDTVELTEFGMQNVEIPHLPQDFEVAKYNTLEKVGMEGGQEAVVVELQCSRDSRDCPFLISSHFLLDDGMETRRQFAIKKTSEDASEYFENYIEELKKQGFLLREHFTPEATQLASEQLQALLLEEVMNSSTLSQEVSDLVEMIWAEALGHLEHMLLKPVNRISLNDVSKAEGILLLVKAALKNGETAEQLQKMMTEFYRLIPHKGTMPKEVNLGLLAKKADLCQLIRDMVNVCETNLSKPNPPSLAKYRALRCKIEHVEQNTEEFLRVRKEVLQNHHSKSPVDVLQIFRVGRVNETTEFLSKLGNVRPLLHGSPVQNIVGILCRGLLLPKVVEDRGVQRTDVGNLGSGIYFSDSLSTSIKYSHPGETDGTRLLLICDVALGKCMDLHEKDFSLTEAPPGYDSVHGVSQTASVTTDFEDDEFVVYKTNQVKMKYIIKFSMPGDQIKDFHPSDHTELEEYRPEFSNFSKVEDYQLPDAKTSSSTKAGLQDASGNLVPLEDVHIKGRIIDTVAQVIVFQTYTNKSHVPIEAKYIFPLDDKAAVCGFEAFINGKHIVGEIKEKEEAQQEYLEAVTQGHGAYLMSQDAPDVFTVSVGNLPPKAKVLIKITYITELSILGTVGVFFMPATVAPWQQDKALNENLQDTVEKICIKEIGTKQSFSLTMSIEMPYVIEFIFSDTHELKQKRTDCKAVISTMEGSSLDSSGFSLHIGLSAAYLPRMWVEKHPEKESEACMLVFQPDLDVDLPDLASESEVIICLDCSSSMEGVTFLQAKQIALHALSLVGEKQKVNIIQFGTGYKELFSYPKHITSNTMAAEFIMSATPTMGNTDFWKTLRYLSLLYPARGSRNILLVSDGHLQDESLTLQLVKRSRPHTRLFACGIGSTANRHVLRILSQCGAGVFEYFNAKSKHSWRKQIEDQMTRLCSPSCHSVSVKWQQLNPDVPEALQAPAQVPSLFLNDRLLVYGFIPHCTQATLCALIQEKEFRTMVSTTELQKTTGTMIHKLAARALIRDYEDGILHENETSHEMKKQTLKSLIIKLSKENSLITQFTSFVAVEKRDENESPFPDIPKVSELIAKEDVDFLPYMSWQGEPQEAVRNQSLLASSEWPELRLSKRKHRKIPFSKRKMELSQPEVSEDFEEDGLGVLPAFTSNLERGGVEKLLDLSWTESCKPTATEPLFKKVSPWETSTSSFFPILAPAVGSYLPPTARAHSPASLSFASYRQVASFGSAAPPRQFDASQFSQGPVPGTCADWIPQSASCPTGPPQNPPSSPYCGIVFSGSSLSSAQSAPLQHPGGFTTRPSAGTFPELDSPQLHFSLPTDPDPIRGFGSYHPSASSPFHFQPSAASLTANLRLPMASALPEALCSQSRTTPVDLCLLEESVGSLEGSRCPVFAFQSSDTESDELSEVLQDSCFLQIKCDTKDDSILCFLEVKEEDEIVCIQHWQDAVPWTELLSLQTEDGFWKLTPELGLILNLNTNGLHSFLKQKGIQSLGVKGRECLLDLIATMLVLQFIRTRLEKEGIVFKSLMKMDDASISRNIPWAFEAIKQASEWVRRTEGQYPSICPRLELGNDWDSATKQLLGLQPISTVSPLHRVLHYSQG
# UniProt Q9Y5Y5: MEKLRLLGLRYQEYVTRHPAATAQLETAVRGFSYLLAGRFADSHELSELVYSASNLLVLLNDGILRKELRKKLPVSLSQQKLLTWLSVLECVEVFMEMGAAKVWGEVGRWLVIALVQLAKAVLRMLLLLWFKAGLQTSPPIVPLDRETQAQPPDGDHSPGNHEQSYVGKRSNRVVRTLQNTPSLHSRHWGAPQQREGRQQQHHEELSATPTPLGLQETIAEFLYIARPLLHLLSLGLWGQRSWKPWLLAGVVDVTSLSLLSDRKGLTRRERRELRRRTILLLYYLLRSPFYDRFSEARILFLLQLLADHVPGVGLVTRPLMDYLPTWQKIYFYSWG
# The other results are listed elsewhere or left out.
# Key:
# Assay in all cases: log2 fold change, soluble protein after heating vs DMSO (PISA); higher = thermal stabilisation; K562 lysate, 10 uM; active = over 0.2 and 3.5 SD of the protein, either way, in both replicates (recomputed)
# ibrutinib = compound: C=CC(=O)N1CCC[C@@H](n2nc(-c3ccc(Oc4ccccc4)cc3)c3c(N)ncnc32)C1 [ibrutinib]
# Method in brief: (§1)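 Quantification was by TMTpro 16plex LC-MS/MS with equalised channel sums, applied to the supernatant after 21,000xg for 90 min. Samples were crude K562 extract at 1 mg/mL protein in PBS pH 7.4 with 1 mM MgCl2, treated with 10 μM compound for 30 min, heated for 3 min across 48°C-58°C, pooled and brought to 0.5% NP-40 at 4°C. Values are log-two fold changes in thermal stability relative to solvent controls, from duplicates.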
# [1] = compound: CC(=O)c1cnc2ccc(-c3cc(Cl)c(O)c(Cl)c3)nc2c1N[C@H]1CC[C@H](CN(C)C)CC1
# Method in brief: as §1
# ralimetinib = compound: CC(C)(C)Cn1c(N)nc2ccc(-c3[nH]c(C(C)(C)C)nc3-c3ccc(F)cc3)nc21 [ralimetinib]
# Method in brief: as §1
# [2] = compound: CC(C)(O)CC(=O)NCCn1ccc2ncnc(Nc3ccc(Oc4cccc(C(F)(F)F)c4)c(Cl)c3)c21
# Method in brief: as §1
# [3] = compound: CC(C)C1=C2N=C(C=C(N2N=C1)NCC3=CC=CC=C3)NCCCCCCN
# Method in brief: as §1
# [4] = compound: CC1=C(C(CC(=O)N1)C2=CC=C(C=C2)C(F)(F)F)C(=O)NC3=C(C=C4C(=C3)C=NN4)F
# Method in brief: as §1
# [5] = compound: CC1=C(C2=C(C=C1)C(=O)C3=CC=CC=C3N2CCCN)C
# Method in brief: as §1
# [6] = compound: CC1=C(C=C(C=C1)NC(=O)C2=CC(=CC=C2)C(C)(C)C#N)NC3=CC4=C(C=C3)N=CN(C4=O)C
# Method in brief: as §1
# [7] = compound: CC1=C(C=C(C=C1)NC(=O)C2=CC(=CC=C2)N(C)C)NC(=O)C3=CC=C(C=C3)O
# Method in brief: as §1
# [8] = compound: CC1=CC=C(C=C1)SC2=C3C=C(SC3=CN=C2)C(=O)N
# Method in brief: as §1
# vemurafenib = compound: CCCS(=O)(=O)Nc1ccc(F)c(C(=O)c2c[nH]c3ncc(-c4ccc(Cl)cc4)cc23)c1F [vemurafenib]
# Method in brief: as §1
# [9] = compound: CCCS(=O)(=O)Nc1ccc(F)c(C(=O)c2c[nH]c3ncc(Cl)cc23)c1F
# Method in brief: as §1
# barasertib = compound: CCN(CCCOc1ccc2c(Nc3cc(CC(=O)Nc4cccc(F)c4)[nH]n3)ncnc2c1)CCOP(=O)(O)O [barasertib]
# Method in brief: as §1
# [10] = compound: CC[C@@H]1C(=O)N(C)c2cnc(Nc3ccc(C(=O)NC4CCN(C)CC4)cc3OC)nc2N1C1CCCC1
# Method in brief: as §1
# volasertib = compound: CC[C@@H]1C(=O)N(C)c2cnc(Nc3ccc(C(=O)N[C@H]4CC[C@H](N5CCN(CC6CC6)CC5)CC4)cc3OC)nc2N1C(C)C [volasertib]
# Method in brief: as §1
# [11] = compound: CCn1c(C(=O)N(C2CC2)C2CC2)cc2c3c(ncn3C)c(Nc3cc(C)n(C)n3)nc21
# Method in brief: as §1
# [12] = compound: CCn1cc(-c2ccnc3[nH]c(-c4cccc(CN(C)C)c4)cc23)c(-c2ccc(NC(=O)N(C)C)cc2)n1
# Method in brief: as §1
# [13] = compound: CN1CCC(CNc2ccc3ncc(-c4cccc(OC(F)(F)F)c4)n3n2)CC1
# Method in brief: as §1
# saracatinib = compound: CN1CCN(CCOc2cc(OC3CCOCC3)c3c(Nc4c(Cl)ccc5c4OCO5)ncnc3c2)CC1 [saracatinib]
# Method in brief: as §1
# sotrastaurin = compound: CN1CCN(c2nc(C3=C(c4c[nH]c5ccccc45)C(=O)NC3=O)c3ccccc3n2)CC1 [sotrastaurin]
# Method in brief: as §1
Target,log2 fold change (ibrutinib),log2 fold change [1],log2 fold change (ralimetinib),log2 fold change [2],log2 fold change [3],log2 fold change [4],log2 fold change [5],log2 fold change [6],log2 fold change [7],log2 fold change [8],log2 fold change (vemurafenib),log2 fold change [9],log2 fold change (barasertib),log2 fold change [10],log2 fold change (volasertib),log2 fold change [11],log2 fold change [12],log2 fold change [13],log2 fold change (saracatinib),log2 fold change (sotrastaurin)
PCK2 (UniProt Q16822),inactive: -0.004,inactive: 0.009,inactive: -0.01,inactive: -0.019,inactive: -0.009,inactive: -0.026,inactive: -0.019,inactive: 0.024,inactive: 0.064,inactive: -0.003,inactive: 0.005,inactive: 0.028,inactive: 0.013,inactive: 0.009,inactive: -0.022,inactive: -0.03,inactive: -0.015,inactive: 0.01,inactive: -0.047,inactive: -0.05
PARP9 (UniProt Q8IXQ6),inactive: -0.2,inactive: -0.215,inactive: 0.04,inactive: -0.162,inactive: 0.121,–,inactive: 0.083,inactive: 0.136,inactive: -0.021,inactive: -0.131,inactive: 0.11,inactive: 0.007,inactive: 0.045,inactive: -0.128,inactive: 0.048,inactive: -0.192,–,–,inactive: -0.106,inactive: -0.093
PFKFB1 (UniProt P16118),inactive: 0.046,inactive: -0.119,inactive: 0,inactive: 0.013,inactive: -0.044,–,inactive: -0.06,–,inactive: -0.018,inactive: -0.23,inactive: -0.105,inactive: 0.143,inactive: -0.032,inactive: 0.1,inactive: 0.038,inactive: -0.074,inactive: -0.021,inactive: 0.01,inactive: 0.003,–
PDK1 (UniProt Q15118),inactive: -0.016,inactive: 0.032,inactive: -0.024,inactive: -0.013,inactive: -0.024,–,inactive: -0.058,inactive: -0.173,inactive: 0.008,inactive: -0.027,inactive: -0.251,inactive: 0.118,inactive: -0.083,inactive: -0.227,inactive: -0.047,inactive: 0.061,inactive: -0.18,inactive: -0.028,inactive: 0.001,inactive: -0.024
PFDN1 (UniProt O60925),inactive: 0.063,inactive: -0.081,inactive: -0.038,inactive: 0.031,inactive: -0.025,inactive: -0.075,inactive: 0.007,inactive: 0.051,inactive: -0.022,inactive: 0.073,inactive: -0.035,inactive: -0.052,inactive: 0.1,inactive: 0.01,inactive: 0.086,inactive: 0.07,inactive: 0.05,inactive: -0.134,inactive: 0.021,inactive: -0.053
PCGF5 (UniProt Q86SE9),inactive: 0.119,inactive: -0.019,inactive: 0.076,inactive: -0.019,inactive: -0.064,inactive: -0.047,inactive: -0.016,inactive: -0.11,inactive: 0.051,inactive: 0.017,inactive: -0.032,inactive: -0.029,inactive: -0.097,inactive: 0.018,inactive: 0.051,inactive: -0.032,–,–,inactive: 0.029,inactive: 0.075
PDSS2 (UniProt Q86YH6),inactive: -0.027,inactive: -0.067,inactive: 0.056,inactive: 0.001,inactive: -0.01,inactive: -0.005,inactive: -0.012,inactive: 0.04,inactive: -0.048,inactive: 0.018,inactive: -0.062,inactive: 0.015,inactive: -0.075,–,inactive: -0.005,inactive: -0.022,inactive: 0.104,inactive: -0.006,inactive: 0.096,inactive: 0.039
PDAP1 (UniProt Q13442),inactive: -0.042,inactive: -0.012,inactive: -0.002,inactive: -0.065,inactive: 0.011,inactive: -0.046,inactive: 0.043,inactive: -0.015,inactive: -0.02,inactive: -0.008,inactive: -0.026,inactive: -0.01,inactive: -0.064,inactive: 0.069,inactive: 0.04,inactive: -0.043,active: -0.267,inactive: 0.159,inactive: -0.002,inactive: -0.02
PEF1 (UniProt Q9UBV8),inactive: 0.009,inactive: -0.021,inactive: -0.034,inactive: -0.036,inactive: -0.029,inactive: -0.025,inactive: -0.004,inactive: 0.021,inactive: 0.01,inactive: -0.01,inactive: -0.025,inactive: 0.015,inactive: 0.189,inactive: 0.033,inactive: 0.009,inactive: -0.001,inactive: -0.116,inactive: -0.043,inactive: -0.025,inactive: -0.016
PEX19 (UniProt P40855),inactive: 0.182,inactive: -0.013,inactive: -0.02,inactive: -0.037,inactive: 0.002,inactive: -0.033,inactive: -0.003,inactive: 0.052,inactive: -0.008,inactive: -0.022,inactive: 0.014,inactive: 0.024,inactive: 0.257,inactive: 0.04,inactive: 0.045,inactive: -0.049,inactive: -0.014,inactive: 0.016,inactive: 0.007,inactive: -0.025
PDZD8 (UniProt Q8NEN9),inactive: -0.047,inactive: -0.001,inactive: 0.011,inactive: -0.008,inactive: -0.013,inactive: 0.059,inactive: -0.064,inactive: -0.027,inactive: 0.002,inactive: -0.02,inactive: 0.053,inactive: -0.01,inactive: -0.021,inactive: 0.089,inactive: -0.001,inactive: 0.003,inactive: -0.017,inactive: -0.008,inactive: 0.027,inactive: -0.024
PCNP (UniProt Q8WW12),inactive: 0.014,inactive: -0.009,inactive: 0.012,inactive: -0.031,inactive: 0.01,inactive: -0.021,inactive: 0.019,inactive: -0.021,inactive: 0.005,inactive: -0.023,inactive: -0.001,inactive: -0.004,inactive: -0.054,inactive: 0.06,inactive: 0.044,inactive: -0.054,inactive: -0.132,inactive: 0.09,inactive: -0.004,inactive: -0.058
PFN1 (UniProt I3L3D5),inactive: -0.045,inactive: -0.053,inactive: 0.045,inactive: -0.033,–,inactive: -0.013,–,–,inactive: 0,inactive: 0.031,–,inactive: -0.142,inactive: 0.241,inactive: -0.01,inactive: -0.107,inactive: -0.067,active: 0.924,inactive: -0.135,–,–
PARP12 (UniProt Q9H0J9),inactive: -0.043,inactive: -0.076,inactive: 0.017,inactive: -0.072,inactive: 0.003,–,inactive: 0.022,inactive: -0.235,inactive: -0.069,inactive: 0.047,–,inactive: -0.281,inactive: 0.001,inactive: -0.021,inactive: 0.051,inactive: 0.049,–,–,inactive: 0.025,inactive: 0.047
PFDN2 (UniProt Q9UHV9),inactive: 0.103,inactive: 0.006,inactive: 0.08,inactive: 0.08,inactive: 0.005,inactive: 0.016,inactive: 0.034,inactive: -0.017,inactive: -0.033,inactive: -0.022,inactive: -0.049,inactive: 0,inactive: 0.064,inactive: -0.022,inactive: 0.029,inactive: 0.082,active: 0.471,inactive: -0.049,inactive: 0.009,inactive: 0.039
PARP4 (UniProt Q9UKK3),inactive: 0.012,inactive: -0.05,–,–,inactive: 0.092,inactive: 0.091,inactive: 0.026,inactive: -0.084,–,inactive: -0.156,–,inactive: -0.032,inactive: 0.056,inactive: 0.006,inactive: -0.338,–,inactive: 0.13,inactive: -0.008,inactive: 0.068,inactive: 0.01
PCNX3 (UniProt Q9H6A9),inactive: 0.008,inactive: -0.01,–,–,–,–,inactive: -0.218,inactive: -0.051,–,inactive: -0.049,inactive: -0.034,inactive: 0.176,inactive: 0.067,inactive: 0.026,inactive: 0.158,–,inactive: -0.024,inactive: -0.218,inactive: 0.078,inactive: -0.086
PEX16 isoform 2 (UniProt Q9Y5Y5),inactive: 0.02,inactive: -0.028,inactive: 0.025,inactive: -0.06,inactive: -0.033,inactive: 0.074,inactive: -0.012,inactive: -0.07,inactive: 0.03,inactive: 0.016,inactive: -0.085,inactive: 0.059,inactive: -0.006,inactive: -0.039,inactive: 0.038,inactive: -0.017,inactive: -0.125,inactive: -0.383,inactive: 0.086,inactive: 0.014

# Two records picked at random from those above:
Target,log2 fold change (ibrutinib),log2 fold change [1],log2 fold change (ralimetinib),log2 fold change [2],log2 fold change [3],log2 fold change [4],log2 fold change [5],log2 fold change [6],log2 fold change [7],log2 fold change [8],log2 fold change (vemurafenib),log2 fold change [9],log2 fold change (barasertib),log2 fold change [10],log2 fold change (volasertib),log2 fold change [11],log2 fold change [12],log2 fold change [13],log2 fold change (saracatinib),log2 fold change (sotrastaurin)
PDK1 (UniProt Q15118),inactive: -0.016,inactive: 0.032,inactive: -0.024,inactive: -0.013,inactive: -0.024,–,inactive: -0.058,inactive: -0.173,inactive: 0.008,inactive: -0.027,inactive: -0.251,inactive: 0.118,inactive: -0.083,inactive: -0.227,inactive: -0.047,inactive: 0.061,inactive: -0.18,inactive: -0.028,inactive: 0.001,inactive: -0.024
PARP12 (UniProt Q9H0J9),inactive: -0.043,inactive: -0.076,inactive: 0.017,inactive: -0.072,inactive: 0.003,–,inactive: 0.022,inactive: -0.235,inactive: -0.069,inactive: 0.047,–,inactive: -0.281,inactive: 0.001,inactive: -0.021,inactive: 0.051,inactive: 0.049,–,–,inactive: 0.025,inactive: 0.047
